# Results from one PubChem assay

Data taken from PubChem BioAssay AID588546, deposited by NCATS (2011).

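Human HEK293T reporter cells report RXR-alpha signaling blockade through a beta-lactamase ratio readout, with no stated incubation time. Potency comes from a fitted concentration series; the assay's dose columns span 0.00043 to 5.4e+04 µM. The number is the concentration giving half-maximal effect, and a lower value means a more potent compound. Active means a well-fitted inhibition curve with enough effect while the control signal stays flat; inconclusive means weak, poorly fitted, top-dose-only, reversed or side-signal effects.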

Values are in nM. Every entry below has the call inconclusive. Only part of the assay is shown, chiefly results filed as inconclusive. Potencies fitted to partial, single-point or poorly fitting curves are rough. Some entries filed as inconclusive have a full curve. The first word of each remark tells which way the curve ran; it can be opposite to the aim of the assay.

* CCCCNC(=O)NS(=O)(=O)c1ccc(C)cc1 | fitted potency 50118 nM (activator, single point)
* CC(C)CCON=O | fitted potency 50118 nM (activator, single point)
* Oc1ccc(O)cc1 | fitted potency 8912 nM (side channel, rising, full curve, poor fit)
* Nc1ccc2cc3ccccc3cc2c1 | fitted potency 35481 nM (fluorescent, side channel, partial curve)
* COc1cc2c(c(OC)c1OC)-c1ccc(OC)c(=O)cc1[C@@H](NC(C)=O)CC2 | fitted potency 39.8 nM (inhibitor, full curve)
* COC(=O)[C@H]1[C@H]2C[C@@H]3c4[nH]c5cc(OC)ccc5c4CCN3C[C@H]2C[C@@H](OC(=O)c2cc(OC)c(OC)c(OC)c2)[C@@H]1OC | fitted potency 7080 nM (side channel, rising, full curve)
* CC(C)(C)C(=O)C1C(=O)c2ccccc2C1=O | fitted potency 44668 nM (inhibitor, partial curve, poor fit)
* Nc1ccc(N=Nc2ccccc2)c(N)n1 | fitted potency 17782 nM (cytotoxic, side channel, partial curve, poor fit)
* COP(=O)(OC)Oc1ccc([N+](=O)[O-])cc1 | fitted potency 31622 nM (inhibitor, partial curve, poor fit)
* Cc1cc(O)c(C(C)(C)C)cc1Sc1cc(C(C)(C)C)c(O)cc1C | fitted potency 14125 nM (cytotoxic, side channel, partial curve)
* CN(C)c1ccc(C(=C2C=CC(=[N+](C)C)C=C2)c2ccccc2)cc1 | fitted potency 5012 nM (inhibitor, full curve, poor fit)
* Oc1cc(Cl)cc(Cl)c1Cl | fitted potency 31622 nM (activator, single point)
* O=C(OCC1CO1)C1CCCCC1C(=O)OCC1CO1 (stereo unspecified) | fitted potency 28183 nM (side channel, rising, partial curve)
* CNc1ccc(O)cc1 | fitted potency 31622 nM (side channel)
* Cc1cc(=O)oc2cc(O)cc(O)c12 | fitted potency 22387 nM (fluorescent, side channel, partial curve)
* S=C([S-])NCCNC(=S)[S-].S=C([S-])NCCNC(=S)[S-].[Mn+2].[Zn+2] | fitted potency 39810 nM (inhibitor, single point)
* S=C([S-])NCCNC(=S)[S-].[Mn+2] | fitted potency 50118 nM (inhibitor, partial curve, poor fit)
* c1cnc2c(c1)ccc1cccnc12 | fitted potency 8912 nM (inhibitor, full curve)

For reference, 2 entries once more:

* Cc1cc(=O)oc2cc(O)cc(O)c12 | fitted potency 22387 nM (fluorescent, side channel, partial curve)
* CCCCNC(=O)NS(=O)(=O)c1ccc(C)cc1 | fitted potency 50118 nM (activator, single point)